Among the data in the supplement of paper PMC8090911 are perinuclear lysosome accumulation values, retold here.

Counter-ions that a name gives are not always drawn. This is one part of the list. Single values are uncertain, as repeats are few or missing.

The assay has as its system p95-ErbB2-MCF7. In words: perinuclear lysosome accumulation (PNLA, size of LAMP2 puncta), robust Z-score vs plate median; higher = more perinuclear lysosome accumulation (reversal of invasive lysosome distribution). Particulars: 5 µM; 24 h.
In the case of `COc1cc(N)c(Cl)cc1C(=O)NC1CCN(Cc2ccccc2)CC1` [Clebopride maleate], the perinuclear lysosome accumulation was determined as 0.622.

Turning to `Nc1nc(N)nc(-c2cc(Cl)ccc2Cl)n1` [Irsogladine Maleate], the perinuclear lysosome accumulation came out at 2.43.

In the case of `CCN1CCCC1CNC(=O)c1cc(S(=O)(=O)CC)c(N)cc1OC` (stereo unspecified) [Amisulpride], the perinuclear lysosome accumulation is -1.69.

On to `CC[C@]12CCCN3CCc4c(n(c5ccccc45)[C@@](O)(C(=O)OC)C1)[C@@H]32` [Vincamine], for which the perinuclear lysosome accumulation was found to be 0.759.

In the case of `Nc1ccc(S(N)(=O)=O)cc1` [Sulfanilamide], the perinuclear lysosome accumulation is -0.51.

With `CC(CCc1ccc(O)cc1)NCCc1ccc(O)c(O)c1` (stereo unspecified) [Dobutamine hydrochloride], the perinuclear lysosome accumulation was -1.37.

As for `CC1=C(C(=O)O)N2C(=O)[C@@H](NC(=O)[C@H](N)c3ccc(O)cc3)[C@H]2SC1` [Cefadroxil], the perinuclear lysosome accumulation was determined as 0.504.

For `C=CCN1CCCC1CNC(=O)c1cc2nn[nH]c2cc1OC` (stereo unspecified) [Alizapride HCl], the perinuclear lysosome accumulation was -3.43.

As to `CC(C)(Oc1ccc(C2CC2(Cl)Cl)cc1)C(=O)O` (stereo unspecified) [Ciprofibrate], the perinuclear lysosome accumulation turned out to be 1.07.

Take `C=C(NC(=O)C(=C)NC(=O)c1csc(C2=N[C@@H]3c4csc(n4)[C@H]4NC(=O)c5csc(n5)[C@H]([C@](C)(O)[C@@H](C)O)NC(=O)[C@H]5CSC(=N5)/C(=C/C)NC(=O)[C@H]([C@@H](C)O)NC(=O)c5csc(n5)[C@]3(CC2)NC(=O)[C@H](C)NC(=O)C(=C)NC(=O)[C@H](C)NC(=O)[C@H]([C@@H](C)CC)N[C@@H]2C=Cc3c([C@H](C)O)cc(nc3[C@H]2O)C(=O)O[C@@H]4C)n1)C(N)=O` [Thiostrepton]: the perinuclear lysosome accumulation amounted to 3.54.

With `CCC(C)(CN(C)C)OC(=O)c1ccccc1` (stereo unspecified) [Amyleine hydrochloride], the perinuclear lysosome accumulation amounted to 0.576.

As for `CC(=C(CCO)SSCC1CCCO1)N(C=O)Cc1cnc(C)nc1N` (stereo in doubt) [Fursultiamine Hydrochloride], the perinuclear lysosome accumulation is -0.179.

`NC(=O)c1cccnc1` [Nicotinamide]: the perinuclear lysosome accumulation was 1.85.

On to `Cn1c(=O)c2c(ncn2CC(O)CO)n(C)c1=O` (stereo unspecified) [Diprophylline], for which the perinuclear lysosome accumulation was -1.24.

For the compound `CNC1(C)C2CCC(C2)C1(C)C` (stereo unspecified) [Mecamylamine hydrochloride], the perinuclear lysosome accumulation was -3.18.

As for `Clc1ccccc1C(c1ccccc1)(c1ccccc1)n1ccnc1` [Clotrimazole], the perinuclear lysosome accumulation is -0.343.

Regarding `Clc1ccc(COC(Cn2ccnc2)c2ccc(Cl)cc2Cl)cc1` (stereo unspecified) [Econazole nitrate], the perinuclear lysosome accumulation was 0.141.

As to `C=CC[N@@+]12CC[C@@]34c5ccccc5N5/C=C6/[C@H]7C[C@H]8[C@@]9(CC[N@@+]8(CC=C)C/C7=C/CO)c7ccccc7N(/C=C(/[C@@H](C[C@@H]31)/C(=C\CO)C2)[C@H]54)[C@@H]69` [Alcuronium chloride], the perinuclear lysosome accumulation stood at 0.499.

As for `CCCC(C(=O)OCCN(CC)CC)(c1ccccc1)c1ccccc1` [Proadifen hydrochloride], the perinuclear lysosome accumulation came out at 1.17.

Turning to `CCN(CC)C(=O)N1CCN(C)CC1` [Diethylcarbamazine citrate], the perinuclear lysosome accumulation was determined as 0.282.

On to `CCN(CCCc1ccccc1)CCCc1ccccc1` [Alverine citrate salt], for which the perinuclear lysosome accumulation was -1.09.

As to `CCSc1ccc2c(c1)N(CCCN1CCN(C)CC1)c1ccccc1S2` [Thiethylperazine malate], the perinuclear lysosome accumulation worked out at 0.76.

Turning to `CN(C)CCC(c1ccccc1)c1ccccn1` (stereo unspecified) [Pheniramine maleate], the perinuclear lysosome accumulation is 0.303.

As for `CC(=O)OC(C)C[N+](C)(C)C` (stereo unspecified) [Methacholine chloride], the perinuclear lysosome accumulation came to 1.37.

On to `CCCCOc1ccc(CC(=O)NO)cc1` [Bufexamac], for which the perinuclear lysosome accumulation is -1.65.

With `C=CCc1ccccc1OCC(O)CNC(C)C` (stereo unspecified) [Alprenolol hydrochloride], the perinuclear lysosome accumulation came to 1.43.

On to `NC[C@H]1CC[C@H](C(=O)O)CC1` [Tranexamic acid], for which the perinuclear lysosome accumulation was -3.85.

Regarding `O=C(O)c1cc(=O)c2c(OCC(O)COc3cccc4oc(C(=O)O)cc(=O)c34)cccc2o1` [Cromolyn disodium salt], the perinuclear lysosome accumulation was -1.08.

With `O=C(Nc1ccccc1)OCC(CN1CCCCC1)OC(=O)Nc1ccccc1` (stereo unspecified) [Diperodon hydrochloride], the perinuclear lysosome accumulation is -0.352.

`CN1[C@@H]2CC[C@H]1C[C@@H](OC(c1ccccc1)c1ccccc1)C2` [Benztropine mesylate]: the perinuclear lysosome accumulation stood at 0.848.

For the compound `CC(=O)Nc1ccc(OCC(O)CNC(C)C)cc1` (stereo unspecified) [Practolol], the perinuclear lysosome accumulation was -0.146.

Regarding `CC(=O)OCC(=O)[C@@]12OC3(CCCC3)O[C@@H]1C[C@H]1[C@@H]3CCC4=CC(=O)C=C[C@]4(C)[C@@]3(F)[C@@H](O)C[C@@]12C` [Amcinonide], the perinuclear lysosome accumulation is -0.136.

Turning to `N=C(N=C(N)N)N1CCOCC1` [Moroxidine hydrochloride], the perinuclear lysosome accumulation is -1.42.

In the case of `CNCC[C@@H](Oc1ccccc1C)c1ccccc1` [Tomoxetine hydrochloride], the perinuclear lysosome accumulation came to 0.558.

For `O=C(CCCCC(=O)Nc1c(I)cc(I)c(C(=O)O)c1I)Nc1c(I)cc(I)c(C(=O)O)c1I` [Iodipamide], the perinuclear lysosome accumulation is -0.793.

Take `O=C(O)Cc1cc(I)c(Oc2ccc(O)c(I)c2)c(I)c1` [Tiratricol, 3,3',5-triiodothyroacetic acid]: the perinuclear lysosome accumulation is -0.0627.

For the compound `COCCCOc1ccnc(C[S+]([O-])c2nc3ccccc3[nH]2)c1C` (stereo unspecified) [Rabeprazole], the perinuclear lysosome accumulation was 0.22.

`CCCc1nc2c(C)cc(-c3nc4ccccc4n3C)cc2n1Cc1ccc(-c2ccccc2C(=O)O)cc1` [Telmisartan]: the perinuclear lysosome accumulation was 0.907.

As for `CCCCOC(=O)c1ccc(O)cc1` [Butylparaben], the perinuclear lysosome accumulation is 0.168.

For `N=C(N)N1CCc2ccccc2C1` [Debrisoquin sulfate], the perinuclear lysosome accumulation was -0.654.

With `CC(=O)/N=c1/sc(S(N)(=O)=O)nn1C` [Methazolamide], the perinuclear lysosome accumulation is -0.853.

As to `CCCCC1C(=O)N(c2ccccc2)N(c2ccccc2)C1=O` [Phenylbutazone], the perinuclear lysosome accumulation amounted to 0.233.

On to `CC(=O)NC[C@H]1CN(c2ccc(N3CCOCC3)c(F)c2)C(=O)O1` [Linezolid], for which the perinuclear lysosome accumulation was -0.647.

For `O=C1C(O)=C(O)C(=O)C(O)=C1O` [Tetrahydroxy-1,4-quinone monohydrate], the perinuclear lysosome accumulation came to 1.52.

As to `Cc1nccn1CC1CCc2c(c3ccccc3n2C)C1=O` (stereo unspecified) [Ondansetron Hydrochloride], the perinuclear lysosome accumulation amounted to 0.766.

Take `COc1ccc2c(c1)c(CC(=O)OCC(=O)O)c(C)n2C(=O)c1ccc(Cl)cc1` [Acemetacin]: the perinuclear lysosome accumulation is -0.192.

With `CCOCCn1c(N2CCCN(C)CC2)nc2ccccc21` [Emedastine], the perinuclear lysosome accumulation is -0.481.

Turning to `CC1=C(C(=O)O)N2C(=O)[C@@H](NC(=O)[C@H](N)c3ccccc3)[C@H]2SC1` [Cephalexin monohydrate], the perinuclear lysosome accumulation is -0.43.

Take `CC[C@H](C)C(=O)O[C@H]1C[C@H](O)C=C2C=C[C@H](C)[C@H](CC[C@@H](O)C[C@@H](O)CC(=O)O)[C@H]21` [Pravastatin]: the perinuclear lysosome accumulation was -0.0594.

For the compound `CC(C)(C)NCC(O)COc1cccc2c1CC(O)C(O)C2` (stereo unspecified) [Nadolol], the perinuclear lysosome accumulation was -0.999.

`Cc1cccc(C)c1NC(=O)CN1CCN(CCCC(c2ccc(F)cc2)c2ccc(F)cc2)CC1` [Lidoflazine]: the perinuclear lysosome accumulation was -0.73.

With `CC(=O)O[C@]1(C(C)=O)CC[C@H]2[C@@H]3C=C(C)C4=CC(=O)CC[C@]4(C)[C@H]3CC[C@@]21C` [Megestrol acetate], the perinuclear lysosome accumulation came to 0.182.

`Nc1nnc(-c2cccc(Cl)c2Cl)c(N)n1` [Lamotrigine]: the perinuclear lysosome accumulation came to 0.835.

Consider `CC[C@@]1(O)C(=O)OCc2c1cc1n(c2=O)Cc2cc3c(CN(C)C)c(O)ccc3nc2-1` [Topotecan], for which the perinuclear lysosome accumulation was -1.19.

Consider `Nc1nc(=O)[nH]cc1F` [Flucytosine], for which the perinuclear lysosome accumulation was found to be 0.955.

With `CN(Cc1ccc(C(C)(C)C)cc1)Cc1cccc2ccccc12` [Butenafine], the perinuclear lysosome accumulation was 0.766.

Consider `S=c1[nH]cnc2nc[nH]c12` [Mercaptopurine], for which the perinuclear lysosome accumulation is -0.251.

As for `CCCCCCCCNC(C)C(O)c1ccc(SC(C)C)cc1` (stereo unspecified) [Suloctidil], the perinuclear lysosome accumulation was -1.65.

As for `COc1ccc2c3c1O[C@H]1C[C@@H](O)C=C[C@@]31CCN(C)C2` [Galanthamine hydrobromide], the perinuclear lysosome accumulation was 0.0124.

In the case of `O=c1[nH]c(=O)n([C@H]2C[C@H](O)[C@@H](CO)O2)cc1C(F)(F)F` [Trifluridine], the perinuclear lysosome accumulation turned out to be 1.2.

Turning to `Cc1nnc(SCC2=C(C(=O)O)N3C(=O)[C@@H](NC(=O)Cn4cnnn4)[C@H]3SC2)s1` [Cefazolin sodium salt], the perinuclear lysosome accumulation was -0.794.

With `CC(C)NC(=N)NC(=N)Nc1ccc(Cl)cc1` [Proguanil hydrochloride], the perinuclear lysosome accumulation was found to be 0.677.

Take `CC(C)Cn1cnc2c(N)nc3ccccc3c21` [Imiquimod]: the perinuclear lysosome accumulation was -0.401.

Consider `NC(=O)N1c2ccccc2CC(=O)c2ccccc21` [Oxcarbazepine], for which the perinuclear lysosome accumulation was 0.0882.

As for `Cc1cccc(Nc2ccncc2S(=O)(=O)NC(=O)NC(C)C)c1` [Torsemide], the perinuclear lysosome accumulation came to 0.0291.

For `CC1(C)O[C@@H]2[C@@H](CO[C@@]3(COS(N)(=O)=O)OC(C)(C)O[C@@H]23)O1` [Topiramate], the perinuclear lysosome accumulation was 0.161.

In the case of `COc1cc(NS(=O)(=O)c2ccc(N)cc2)nc(OC)n1` [Sulfadimethoxine], the perinuclear lysosome accumulation is -0.373.

In the case of `C=N[C@@H](C(=O)N[C@@H]1C(=O)N2[C@@H]1SC(C)(C)[C@@H]2C(=O)O)c1ccccc1` [Metampicillin sodium salt], the perinuclear lysosome accumulation was -0.547.

Take `CC[N+](CC)(CC(=O)Nc1c(C)cccc1C)Cc1ccccc1` [Denatonium benzoate]: the perinuclear lysosome accumulation was -2.14.

On to `CN(C)CCN(Cc1ccc(Cl)cc1)c1ccccn1` [Chloropyramine hydrochloride], for which the perinuclear lysosome accumulation is -0.205.

`NS(=O)(=O)Cc1noc2ccccc12` [Zonisamide]: the perinuclear lysosome accumulation is -0.336.

Take `COc1ccc2c(c1)C(=O)N(CCc1ccc(S(=O)(=O)NC(=O)NC3CCCCC3)cc1)C(=O)C2(C)C` [Gliquidone]: the perinuclear lysosome accumulation was -1.93.

With `COc1ccc([C@@H]2Sc3ccccc3N(CCN(C)C)C(=O)[C@@H]2OC(C)=O)cc1` [Diltiazem hydrochloride], the perinuclear lysosome accumulation was -0.162.

For `Cc1cn([C@H]2C[C@H](N=[N+]=[N-])[C@@H](CO)O2)c(=O)[nH]c1=O` [Zidovudine, AZT], the perinuclear lysosome accumulation worked out at 0.236.

In the case of `CC(C[N+](C)(C)C)OC(N)=O` (stereo unspecified) [Bethanechol chloride], the perinuclear lysosome accumulation was -1.32.

Consider `COc1cccc(N(C)C(=S)Oc2ccc3c(c2)CCCC3)n1` [Liranaftate], for which the perinuclear lysosome accumulation was -0.918.
